Source: publication PMC11322209

The chains behind the UniProt entries cited, without tags or fusion partners. Residues count along the entry.
UniProt P11142: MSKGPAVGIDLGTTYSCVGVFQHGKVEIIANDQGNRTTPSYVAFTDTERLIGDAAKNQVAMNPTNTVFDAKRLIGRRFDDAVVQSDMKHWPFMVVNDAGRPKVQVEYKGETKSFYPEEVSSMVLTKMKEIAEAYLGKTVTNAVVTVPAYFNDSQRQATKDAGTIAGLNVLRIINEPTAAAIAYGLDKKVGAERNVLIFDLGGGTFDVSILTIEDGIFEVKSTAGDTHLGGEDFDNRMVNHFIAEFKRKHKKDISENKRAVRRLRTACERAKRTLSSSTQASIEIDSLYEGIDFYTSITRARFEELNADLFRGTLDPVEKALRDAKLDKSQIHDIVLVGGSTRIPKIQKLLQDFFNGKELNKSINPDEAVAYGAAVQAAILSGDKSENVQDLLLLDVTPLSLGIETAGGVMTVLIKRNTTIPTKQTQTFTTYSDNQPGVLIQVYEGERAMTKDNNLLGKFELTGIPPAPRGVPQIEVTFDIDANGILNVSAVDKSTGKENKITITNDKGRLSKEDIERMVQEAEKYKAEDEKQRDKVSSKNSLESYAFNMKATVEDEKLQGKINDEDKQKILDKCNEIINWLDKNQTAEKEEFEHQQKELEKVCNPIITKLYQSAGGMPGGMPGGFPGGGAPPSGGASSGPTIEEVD
UniProt Q01844: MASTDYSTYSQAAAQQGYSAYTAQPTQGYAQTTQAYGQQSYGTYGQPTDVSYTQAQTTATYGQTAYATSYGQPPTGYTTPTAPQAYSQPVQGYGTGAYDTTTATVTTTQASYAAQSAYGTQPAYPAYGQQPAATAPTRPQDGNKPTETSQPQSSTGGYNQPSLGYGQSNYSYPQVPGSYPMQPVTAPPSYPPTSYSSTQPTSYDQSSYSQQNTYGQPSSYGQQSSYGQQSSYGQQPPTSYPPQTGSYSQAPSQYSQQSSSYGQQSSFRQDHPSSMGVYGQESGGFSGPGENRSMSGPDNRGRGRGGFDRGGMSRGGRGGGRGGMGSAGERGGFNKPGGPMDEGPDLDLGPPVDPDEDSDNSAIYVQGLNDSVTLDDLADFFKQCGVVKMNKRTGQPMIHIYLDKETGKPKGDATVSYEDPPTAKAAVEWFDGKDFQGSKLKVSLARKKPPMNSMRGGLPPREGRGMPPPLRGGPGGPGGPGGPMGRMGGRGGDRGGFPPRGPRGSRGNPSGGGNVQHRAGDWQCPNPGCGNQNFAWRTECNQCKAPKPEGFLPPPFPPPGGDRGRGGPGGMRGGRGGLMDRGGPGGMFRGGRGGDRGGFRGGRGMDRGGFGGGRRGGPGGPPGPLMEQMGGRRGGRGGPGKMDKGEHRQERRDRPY
UniProt P02671, residues 20-866: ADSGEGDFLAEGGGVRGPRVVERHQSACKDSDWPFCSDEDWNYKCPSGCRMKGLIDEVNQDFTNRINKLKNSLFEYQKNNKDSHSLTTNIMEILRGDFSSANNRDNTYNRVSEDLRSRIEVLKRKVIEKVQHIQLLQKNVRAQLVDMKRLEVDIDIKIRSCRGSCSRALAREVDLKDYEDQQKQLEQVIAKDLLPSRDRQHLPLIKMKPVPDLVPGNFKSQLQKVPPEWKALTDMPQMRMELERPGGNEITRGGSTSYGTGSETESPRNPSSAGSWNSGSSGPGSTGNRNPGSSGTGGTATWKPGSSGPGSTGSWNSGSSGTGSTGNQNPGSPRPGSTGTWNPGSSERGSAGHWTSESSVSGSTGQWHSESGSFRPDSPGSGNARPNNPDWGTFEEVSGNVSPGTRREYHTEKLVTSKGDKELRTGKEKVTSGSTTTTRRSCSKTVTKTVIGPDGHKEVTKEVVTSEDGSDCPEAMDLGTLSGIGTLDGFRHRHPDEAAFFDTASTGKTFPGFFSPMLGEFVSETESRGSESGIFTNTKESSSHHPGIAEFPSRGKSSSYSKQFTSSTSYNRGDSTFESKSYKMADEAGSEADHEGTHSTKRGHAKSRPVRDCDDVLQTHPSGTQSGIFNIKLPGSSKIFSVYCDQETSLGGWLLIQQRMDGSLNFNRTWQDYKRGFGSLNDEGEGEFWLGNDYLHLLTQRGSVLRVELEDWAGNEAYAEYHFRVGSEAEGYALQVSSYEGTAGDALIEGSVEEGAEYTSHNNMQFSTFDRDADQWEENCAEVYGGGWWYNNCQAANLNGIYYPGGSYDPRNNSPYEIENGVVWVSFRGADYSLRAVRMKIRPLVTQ
UniProt P14618: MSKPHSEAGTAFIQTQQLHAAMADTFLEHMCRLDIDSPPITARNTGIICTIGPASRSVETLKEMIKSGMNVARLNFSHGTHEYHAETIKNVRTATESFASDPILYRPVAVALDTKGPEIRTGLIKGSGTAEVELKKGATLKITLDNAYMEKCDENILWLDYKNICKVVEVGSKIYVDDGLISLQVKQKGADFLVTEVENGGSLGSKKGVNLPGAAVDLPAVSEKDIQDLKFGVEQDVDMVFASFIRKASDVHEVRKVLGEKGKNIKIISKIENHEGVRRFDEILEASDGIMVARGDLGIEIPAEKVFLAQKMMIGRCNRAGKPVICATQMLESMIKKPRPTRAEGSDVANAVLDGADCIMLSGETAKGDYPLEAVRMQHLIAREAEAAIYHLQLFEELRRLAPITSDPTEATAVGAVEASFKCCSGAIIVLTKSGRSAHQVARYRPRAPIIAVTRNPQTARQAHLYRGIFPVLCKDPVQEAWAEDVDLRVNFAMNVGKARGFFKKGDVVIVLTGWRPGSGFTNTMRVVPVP

B1: YWHAQ (protein, UniProt P27348 1-245)
chain: MEKTELIQKAKLAEQAERYDDMATCMKAVTEQGAELSNEERNLLSVAYKNVVGGRRSAWRVISSIEQKTDTSDKKLQLIKDYREKVESELRSICTTVLELLDKYLIANATNPESKVFYLKMKGDYFRYLAEVACGDDRKQTIDNSQGAYQEAFDISKKEMQPTHPIRLGLALNFSVFYYEILNNPELACTLAKTAFDEAIAELDTLNEDSYKDSTLIMQLLRDNLTLWTSDSAGEECDAAEGAEN
B2: HNRNPM (protein, UniProt P52272 1-730)
chain: MAAGVEAAAEVAATEIKMEEESGAPGVPSGNGAPGPKGEGERPAQNEKRKEKNIKRGGNRFEPYANPTKRYRAFITNIPFDVKWQSLKDLVKEKVGEVTYVELLMDAEGKSRGCAVVEFKMEESMKKAAEVLNKHSLSGRPLKVKEDPDGEHARRAMQKVMATTGGMGMGPGGPGMITIPPSILNNPNIPNEIIHALQAGRLGSTVFVANLDYKVGWKKLKEVFSMAGVVVRADILEDKDGKSRGIGTVTFEQSIEAVQAISMFNGQLLFDRPMHVKMDERALPKGDFFPPERPQQLPHGLGGIGMGLGPGGQPIDANHLNKGIGMGNIGPAGMGMEGIGFGINKMGGMEGPFGGGMENMGRFGSGMNMGRINEILSNALKRGEIIAKQGGGGGGGSVPGIERMGPGIDRLGGAGMERMGAGLGHGMDRVGSEIERMGLVMDRMGSVERMGSGIERMGPLGLDHMASSIERMGQTMERIGSGVERMGAGMGFGLERMAAPIDRVGQTIERMGSGVERMGPAIERMGLSMERMVPAGMGAGLERMGPVMDRMATGLERMGANNLERMGLERMGANSLERMGLERMGANSLERMGPAMGPALGAGIERMGLAMGGGGGASFDRAIEMERGNFGGSFAGSFGGAGGHAPGVARKACQIFVRNLPFDFTWKMLKDKFNECGHVLYADIKMENGKSKGCGVVKFESPEVAERACRMMNGMKLSGREIDVRIDRNA
B3: NONO (protein, UniProt Q15233 1-471)
chain: MQSNKTFNLEKQNHTPRKHHQHHHQQQHHQQQQQQPPPPPIPANGQQASSQNEGLTIDLKNFRKPGEKTFTQRSRLFVGNLPPDITEEEMRKLFEKYGKAGEVFIHKDKGFGFIRLETRTLAEIAKVELDNMPLRGKQLRVRFACHSASLTVRNLPQYVSNELLEEAFSVFGQVERAVVIVDDRGRPSGKGIVEFSGKPAARKALDRCSEGSFLLTTFPRPVTVEPMDQLDDEEGLPEKLVIKNQQFHKEREQPPRFAQPGSFEYEYAMRWKALIEMEKQQQDQVDRNIKEAREKLEMEMEAARHEHQVMLMRQDLMRRQEELRRMEELHNQEVQKRKQLELRQEEERRRREEEMRRQQEEMMRRQQEGFKGTFPDAREQEIRMGQMAMGGAMGINNRGAMPPAPVPAGTPAPPGPATMMPDGTLGLTPPTTERFGQAATMEGIGAIGGTPPAFNRAAPGAEFAPNKRRRY

Molecular target: T1, Flag-tagged GPX8 (Glutathione Peroxidase 8) (UniProt Q8TED1)
T1 sequence: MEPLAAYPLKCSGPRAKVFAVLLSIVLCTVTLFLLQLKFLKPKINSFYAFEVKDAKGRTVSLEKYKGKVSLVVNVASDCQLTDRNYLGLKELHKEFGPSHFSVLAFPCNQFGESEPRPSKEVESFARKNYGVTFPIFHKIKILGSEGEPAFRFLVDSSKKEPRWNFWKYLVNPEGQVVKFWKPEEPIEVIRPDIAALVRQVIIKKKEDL
Test: affinity purification with mass spectrometry; anti-Flag IP from SNU449 or HEK-293T cells transfected with the Flag-tagged GPX8 overexpression plasmid; precipitated proteins analysed by LC-MS/MS

| Molecule | binding |
| --- | --- |
| 71-kDa heat shock cognate protein (Hsc70) (from UniProt P11142 1-646) | binds |
| EWSR1 (from UniProt Q01844 1-656) | binds |
| FGA (from UniProt P02671 20-866) | binds |
| PKM (from UniProt P14618 1-531) | binds |
| B1 | binds |
| B2 | binds |
| B3 | binds |

Results are given in words; binding and its absence hold for the method and conditions named. In cells and extracts the contact can be indirect. These calls come from enrichment with a bait or labelling near it, and not all partners need be listed. Where a sequence is shown, tags or fusion partners need not be part of it.
